The chains behind the UniProt entries cited, without tags or fusion partners. Residues count along the entry.
UniProt Q96EB6, 2-747 limits assumed: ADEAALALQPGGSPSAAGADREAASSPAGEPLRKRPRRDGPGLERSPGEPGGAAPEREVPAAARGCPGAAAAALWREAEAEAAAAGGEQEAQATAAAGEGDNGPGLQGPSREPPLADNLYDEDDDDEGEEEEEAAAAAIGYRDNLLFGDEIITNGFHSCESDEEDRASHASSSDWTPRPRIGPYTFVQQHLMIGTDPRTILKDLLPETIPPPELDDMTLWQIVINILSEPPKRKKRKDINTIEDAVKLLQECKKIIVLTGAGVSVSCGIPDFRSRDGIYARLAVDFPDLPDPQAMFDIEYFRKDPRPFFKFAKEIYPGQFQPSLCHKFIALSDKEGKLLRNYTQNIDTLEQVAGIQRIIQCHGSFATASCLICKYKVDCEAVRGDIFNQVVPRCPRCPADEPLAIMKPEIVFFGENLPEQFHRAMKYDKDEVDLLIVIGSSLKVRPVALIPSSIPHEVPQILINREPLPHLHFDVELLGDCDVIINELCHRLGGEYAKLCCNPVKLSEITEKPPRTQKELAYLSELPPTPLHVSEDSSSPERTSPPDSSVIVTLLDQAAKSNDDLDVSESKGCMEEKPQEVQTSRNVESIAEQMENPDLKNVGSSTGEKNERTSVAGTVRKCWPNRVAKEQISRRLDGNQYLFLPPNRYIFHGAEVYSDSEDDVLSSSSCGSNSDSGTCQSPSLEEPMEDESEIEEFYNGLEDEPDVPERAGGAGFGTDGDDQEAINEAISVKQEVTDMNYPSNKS

The full ranking holds about 3,200 compounds; the median of “TSA(with NAD+) / Primary screening (TSA) / delta Tm (K)” is about -0.04, and the highest 2% start at about 0.37. Some of the results follow.
These compounds were tested against NAD-dependent deacetylase Sirtuin 1 (human, UniProt Q96EB6) (assay: primary screen, delta tm). Details: 10 µM.
Design: single well (n = 1, as 'the same TSA')
With `COc1cccc(CSC(C)C(N)=O)c1` (stereo not drawn) the “TSA(with NAD+) / Primary screening (TSA) / delta Tm (K)” value was -0.03 K.
For `CCCOC(=O)c1ccc(NC(=O)c2cccc(S(=O)(=O)N(C)c3ccc(OC)cc3)c2)cc1`, the “TSA(with NAD+) / Primary screening (TSA) / delta Tm (K)” value was 0.29 K.
In the case of `Cc1ccc(C)c(NC(=O)Cc2nc(COC(=O)c3ccc(O)cc3O)cs2)c1`, the “TSA(with NAD+) / Primary screening (TSA) / delta Tm (K)” value is reported as 0.05 K.
For `Cc1nc2ccc(Cl)cc2cc1C(=O)NCC(c1ccccc1)N1CCCC1` (stereo not drawn), the “TSA(with NAD+) / Primary screening (TSA) / delta Tm (K)” value was -0.28 K.
`COc1ccc(C=C2C(=O)NC(=S)NC2=O)cc1` was tested, and the “TSA(with NAD+) / Primary screening (TSA) / delta Tm (K)” value was 0.08 K.
With `NC(=O)c1ccc(S(=O)(=O)N2CCN(CC(O)c3ccccc3)CC2)cc1` (stereo not drawn) the “TSA(with NAD+) / Primary screening (TSA) / delta Tm (K)” value was 0.06 K.
`CCCn1c(NC(=O)c2ccc3c(c2)CCC(=O)N3)nc2ccccc21` was tested, and the “TSA(with NAD+) / Primary screening (TSA) / delta Tm (K)” value was 0.15 K.
With `NC(=O)c1ccc(NC(=O)C(Cc2ccccc2)NC(=O)c2ccccc2)cc1` (stereo not drawn) the “TSA(with NAD+) / Primary screening (TSA) / delta Tm (K)” value was -0.19 K.
For `CN(CC(=O)Nc1ccc(Cl)cc1)C(=O)CCn1ccc2ccccc21`, the “TSA(with NAD+) / Primary screening (TSA) / delta Tm (K)” value was -0.01 K.
With `CC(OC(=O)c1cccc(S(=O)(=O)Nc2ccc(F)cc2)c1)c1nc2ccccc2c(=O)[nH]1` (stereo not drawn) the “TSA(with NAD+) / Primary screening (TSA) / delta Tm (K)” value was 0.25 K.
In the case of `Cc1ccc(CSc2nc3ccsc3c(=O)n2C)cc1`, the “TSA(with NAD+) / Primary screening (TSA) / delta Tm (K)” value is reported as -0.04 K.
In the case of `CC(C)C(NC(=O)c1ccco1)C(=O)NNC(=O)C1CC1` (stereo not drawn), the “TSA(with NAD+) / Primary screening (TSA) / delta Tm (K)” value is reported as -0.18 K.
`CC(NC(=O)COC(=O)c1ccccc1C(=O)N1CCN(c2ccccc2)CC1)C12CC3CC(CC(C3)C1)C2` (stereo not drawn) was tested, and the “TSA(with NAD+) / Primary screening (TSA) / delta Tm (K)” value was -0.06 K.
In the case of `Cc1ccc(OCCN)cc1`, the “TSA(with NAD+) / Primary screening (TSA) / delta Tm (K)” value is reported as 0.15 K.
For `CCn1c2ccccc2c2cc(NC(=O)C(C)OC(=O)c3cccc(S(=O)(=O)Nc4ccc(Cl)cc4)c3)ccc21` (stereo not drawn), the “TSA(with NAD+) / Primary screening (TSA) / delta Tm (K)” value was 0.31 K.
In the case of `CC(C(N)=O)N(C)Cc1ccccc1Cl` (stereo not drawn), the “TSA(with NAD+) / Primary screening (TSA) / delta Tm (K)” value is reported as 0.25 K.
With `O=C1CCC(C(=O)Nc2cccc(Cn3cnc4ccccc43)c2)N1` (stereo not drawn) the “TSA(with NAD+) / Primary screening (TSA) / delta Tm (K)” value was 0.03 K.
With `Sc1nc2ccccc2c2nc(-c3cc4ccccc4o3)nn12` the “TSA(with NAD+) / Primary screening (TSA) / delta Tm (K)” value was 0.06 K.
In the case of `N#Cc1ccc(S(=O)(=O)NCc2ccc(S(N)(=O)=O)s2)cc1`, the “TSA(with NAD+) / Primary screening (TSA) / delta Tm (K)” value is reported as -0.13 K.
In the case of `c1coc(CNc2ncnc3ccsc23)c1`, the “TSA(with NAD+) / Primary screening (TSA) / delta Tm (K)” value is reported as -0.11 K.
In the case of `CCCN(CC(=O)Nc1ccc(C(N)=O)cc1)CC(=O)Nc1ccccc1C`, the “TSA(with NAD+) / Primary screening (TSA) / delta Tm (K)” value is reported as -0.08 K.
For `O=C(Oc1ccc2oc3ccccc3c2c1)c1ccc([N+](=O)[O-])cc1`, the “TSA(with NAD+) / Primary screening (TSA) / delta Tm (K)” value was -0.08 K.
In the case of `O=S(=O)(c1cccc(Br)c1)N1CCN(c2ncnc3cc(Cl)ccc23)CC1`, the “TSA(with NAD+) / Primary screening (TSA) / delta Tm (K)” value is reported as -0.03 K.
In the case of `CN(CC(=O)Nc1ccc(Cl)cc1)C(=O)c1ccccc1SCC(=O)NC12CC3CC(CC(C3)C1)C2`, the “TSA(with NAD+) / Primary screening (TSA) / delta Tm (K)” value is reported as 0.16 K.
`Cc1ccc(C(=O)C2=C(O)C(=O)N(CCCN3CCOCC3)C2c2ccc([N+](=O)[O-])cc2)cc1` (stereo not drawn) was tested, and the “TSA(with NAD+) / Primary screening (TSA) / delta Tm (K)” value was -0.13 K.
For `CN(Cc1ccccc1)C(=O)NCC1CCN(c2ccncc2)CC1`, the “TSA(with NAD+) / Primary screening (TSA) / delta Tm (K)” value was 0.03 K.
In the case of `CN(c1ccc(O)cc1)S(=O)(=O)c1ccc2ccccc2c1`, the “TSA(with NAD+) / Primary screening (TSA) / delta Tm (K)” value is reported as 0.31 K.
With `COc1ccc(CC(=O)NCCNC(=O)c2ccc(C)c(F)c2)cc1` the “TSA(with NAD+) / Primary screening (TSA) / delta Tm (K)” value was -0.13 K.
`COC(=O)c1cc(NC(=O)CN2C(=O)NC(C)(c3ccc4ccccc4c3)C2=O)cc(C(=O)OC)c1` (stereo not drawn) was tested, and the “TSA(with NAD+) / Primary screening (TSA) / delta Tm (K)” value was 0.19 K.
`Cc1ccc2c(CC(=O)Nc3ccccc3Cc3ccccc3)coc2c1` was tested, and the “TSA(with NAD+) / Primary screening (TSA) / delta Tm (K)” value was 0.06 K.
For `O=C1CCc2cc(NC(=O)c3cccnc3)ccc2N1`, the “TSA(with NAD+) / Primary screening (TSA) / delta Tm (K)” value was -0.13 K.
With `COc1cccc(CCNC(C(N)=O)c2ccccc2)c1` (stereo not drawn) the “TSA(with NAD+) / Primary screening (TSA) / delta Tm (K)” value was 0.06 K.
`COc1ccc(C)cc1NCCn1c(C)c(C)n2c3c(=O)[nH]c(=O)n(C)c3nc12` was tested, and the “TSA(with NAD+) / Primary screening (TSA) / delta Tm (K)” value was -0.01 K.
With `O=C(c1sc2ccccc2c1Cl)N1CCCN(c2nnc(C(F)(F)F)s2)CC1` the “TSA(with NAD+) / Primary screening (TSA) / delta Tm (K)” value was 0.01 K.
`COC(=O)c1ccc2[nH]c3c(c2c1)CN(S(C)(=O)=O)CC3` was tested, and the “TSA(with NAD+) / Primary screening (TSA) / delta Tm (K)” value was 0.16 K.
In the case of `Nc1ncnc(N2Cc3cccc(Br)c3C2)c1Cl`, the “TSA(with NAD+) / Primary screening (TSA) / delta Tm (K)” value is reported as -0.04 K.
With `Cn1c(COc2nc(-c3ccccc3Cl)no2)cc(=O)n(C)c1=O` the “TSA(with NAD+) / Primary screening (TSA) / delta Tm (K)” value was 0.09 K.
In the case of `O=C1NC(=O)C(=Cc2cn(-c3ccccc3)nc2-c2cc3ccccc3oc2=O)C(=O)N1`, the “TSA(with NAD+) / Primary screening (TSA) / delta Tm (K)” value is reported as -0.13 K.
In the case of `COc1cccc(N2CCCC(NC(=O)CCc3cnccn3)C2)c1` (stereo not drawn), the “TSA(with NAD+) / Primary screening (TSA) / delta Tm (K)” value is reported as -0.13 K.
`NC(=O)c1ccc(NC(=O)CSc2nnc(-c3ccc4c(c3)OCO4)o2)cc1` was tested, and the “TSA(with NAD+) / Primary screening (TSA) / delta Tm (K)” value was 0.01 K.
In the case of `O=C(C1=C(O)C(=O)N(CCCN2CCOCC2)C1c1ccccn1)c1ccco1` (stereo not drawn), the “TSA(with NAD+) / Primary screening (TSA) / delta Tm (K)” value is reported as 0.05 K.
For `O=C1NC(=S)N/C1=C/c1ccc(-c2ccccc2F)o1`, the “TSA(with NAD+) / Primary screening (TSA) / delta Tm (K)” value was -0.01 K.
`CCCOc1ccc(C(=O)C2=C(O)C(=O)N(CCN3CCOCC3)C2c2ccco2)cc1` (stereo not drawn) was tested, and the “TSA(with NAD+) / Primary screening (TSA) / delta Tm (K)” value was -0.06 K.
For `NC(=O)c1cc2c(ccc3ccccc32)o/c1=N\c1ccc(Br)cc1`, the “TSA(with NAD+) / Primary screening (TSA) / delta Tm (K)” value was -0.16 K.
In the case of `COc1ccc(N(C)S(=O)(=O)c2cccc(C(=O)Nc3ccc(OC)c(OC)c3)c2)cc1`, the “TSA(with NAD+) / Primary screening (TSA) / delta Tm (K)” value is reported as -0.04 K.
With `CN(c1ccc(OCc2ccccc2C#N)cc1)S(=O)(=O)c1ccccc1` the “TSA(with NAD+) / Primary screening (TSA) / delta Tm (K)” value was -0.26 K.
In the case of `NC(=O)c1cccc(CCNC(=O)CCC(=O)c2ccc3c(c2)OCCO3)c1`, the “TSA(with NAD+) / Primary screening (TSA) / delta Tm (K)” value is reported as 0.09 K.
With `O=C(NC1CCOc2ccccc21)c1ccc2c(=O)n3c(nc2c1)CCC3` (stereo not drawn) the “TSA(with NAD+) / Primary screening (TSA) / delta Tm (K)” value was -0.11 K.
